Measured values reported in PubChem BioAssay AID1347075 (National Center for Advancing Translational Sciences (NCATS), 2019).
Hit rate of the full screen: of about 400,000 compounds, about 5,500 (1.4%) were called active. The inconclusive results got no clear call from the source; some entries with a clear call stand among them for comparison. Calls come from the whole dose curve; as a rule, active = well fitted cell-killing curve with a large enough effect; inconclusive = small, poorly fitted or top-dose-only effect, or effect the other way; inactive = flat fitted curve, though single readings scatter. A potency beside an inconclusive call is a rough fit, not a confirmed value.

assay: qHTS assay for MDR1-selective chemotherapeutics: Primary screen using the parental adenocarcinoma cell KB-3-1; settings: KB-3-1 viability, CellTiter-Glo ATP luminescence, 72 h; activity change, negative = cytotoxic: at 46.1 µM (top of the series); note: nearly all actives have a fitted effect of over 60% in size
In short: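 KB-3-1 parental drug-naive adenocarcinoma cells in DMEM/10% FBS, incubated 72 h at 37 C with pin-transferred compounds across a concentration series. Viability by CellTiter-Glo luminescence; concentration-response curves fitted after normalization.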
% is set by controls: 0 for no effect and ±100 for the full control effect; potency is the fitted concentration of half-maximal effect.

Row | Structure (SMILES) | Potency | activity change, negative = cytotoxic
1 | CCOc1ccc(NC(=S)N=Nc2c(O)[nH]c3ccccc23)cc1 | inconclusive: 18.4 µM [cytotoxic, single point] | –
2 | CC(C)(C)c1cc(NC(=O)COC(=O)C2CC2)n(-c2ccccc2)n1 | inconclusive: 23.1 µM [rising, partial curve, poor fit] | –
3 | Cc1cc(C)c(CN2CCN(C(=O)Cn3cnc4c(NCc5ccccc5)ncnc43)CC2)c(C)c1 | inconclusive: 11.6 µM [cytotoxic, partial curve, poor fit] | –
4 | O=S(=O)(NCc1ccccc1)c1cccs1 | – | inconclusive: -60.7%
5 | COC(=O)c1sc2ccccc2c1-n1cccc1C(=O)C(=O)Nc1ccc(C)cc1 | inconclusive: 20.6 µM [cytotoxic, single point] | –
6 | Clc1cccc(Cl)c1C[n+]1cccc2ccccc21 | inconclusive: 16.4 µM [cytotoxic, partial curve] | –
7 | CCn1c(=N)c(C(=O)NC)cc2c(=O)n3cccc(C)c3nc21 | inactive | –
8 | Cc1ccc(/C=N/NC(=O)Cc2ccc(Cl)cc2)s1 | inactive | –
9 | CCOc1ccc(NC(=O)C2CCCN(c3c(CC)c(C)nc4ncnn34)C2)cc1 (stereo not drawn) | inconclusive: 9.2 µM [cytotoxic, partial curve, poor fit] | –
10 | Cc1cccc2c1N(CCCOc1ccccc1)C(=O)C2=O | inactive | –
11 | CC(C)C[C@@H](CN)NC(=O)c1nc[nH]c1C(=O)N[C@@H](CC(C)C)C(=O)CNC[C@H](C)NC(=O)c1nc[nH]c1C(=O)N[C@@H](C)C(=O)O | inactive | –
12 | CC(=O)OCCc1[nH]c2ccccc2c1C | inactive | –
13 | COc1cccc(C(=O)NCCN2CCC(n3c(=O)[nH]c4ccccc43)CC2)c1 | – | inconclusive: 6.3%
14 | Cc1cc(/C=C/c2ccnc3ccccc23)ccc1N(C)C | active: 7.31 µM | –
15 | CC(=O)c1cccc(NC(=O)C(C)OC(=O)CCCN=C2NS(=O)(=O)c3ccccc32)c1 (stereo not drawn) | inactive | –
16 | CCCC(=O)N(C)c1ccc(/C=C2\C=Cc3ccccc32)cc1 | inconclusive: 18.4 µM [cytotoxic, single point] | –
17 | O=c1[nH]c2cc3c(cc2cc1C(c1nnnn1CC1CCCO1)N1CCCC1)OCO3 (stereo not drawn) | inactive | –
18 | Cc1cc([N+](=O)[O-])ccc1NC(=O)/C=C/c1cccs1 | inconclusive: 16.4 µM [rising, partial curve, poor fit] | –
19 | COc1ccc(CN(C)C[C@@H]2OCCCC[C@@H](C)Oc3ccc(N(C)C)cc3C(=O)N([C@H](C)CO)C[C@@H]2C)cc1 | inactive | –
20 | COC(=O)C1CCN(c2csc3ccc(Cl)cc3c2=O)CC1 | inactive | –
21 | COc1ccccc1N1CCN(C(=O)c2cc(C)oc2C)CC1 | inconclusive: 29.1 µM [cytotoxic, partial curve, poor fit] | –
22 | Cc1nc2ccc(S(=O)(=O)NCC(=O)Nc3cccc(F)c3)cc2s1 | inactive | –
23 | CC(O)c1c(OCc2ccccc2)ncnc1OCc1ccccc1 (stereo not drawn) | inconclusive: 20.6 µM [cytotoxic, partial curve, poor fit] | –

2 entries from above in a different format:
Cc1cccc2c1N(CCCOc1ccccc1)C(=O)C2=O
  Potency: inactive
CC(C)C[C@@H](CN)NC(=O)c1nc[nH]c1C(=O)N[C@@H](CC(C)C)C(=O)CNC[C@H](C)NC(=O)c1nc[nH]c1C(=O)N[C@@H](C)C(=O)O
  Potency: inactive

(continued)

Row | Structure (SMILES) | Potency | activity change, negative = cytotoxic
24 | CN(C)c1ccc(NC(=O)C2CCCN(S(=O)(=O)c3ccccc3)C2)cc1 (stereo not drawn) | inconclusive: 16.4 µM [cytotoxic, partial curve, poor fit] | –
25 | Cc1ccc(C(=O)NCc2ccco2)cc1Br | inactive | –
26 | C=Cc1cnc([N+](=O)[O-])n1C | inconclusive: 25.9 µM [cytotoxic, single point] | –
27 | CN(C)S(=O)(=O)N1CCc2ccc(NC(=O)c3ccc(C(F)(F)F)cc3)cc2C1 | inconclusive: 5.17 µM [cytotoxic, partial curve, poor fit] | –
28 | COc1ccc(CCNC(=S)N2CCC(Cc3ccccc3)CC2)cc1OC | inconclusive: 16.4 µM [cytotoxic, single point] | –
29 | Cn1c(CNC2CCCCC2)c(C#N)c2ccccc21 | inactive | –
30 | COc1cccc(NC(=O)Cn2c(=O)n(CCc3ccc(OC)c(OC)c3)c(=O)c3ccccc32)c1 | inactive | –
31 | COc1ccccc1NC(=S)N/N=C/c1ccc(O)cc1 | inconclusive: 32.6 µM [cytotoxic, single point] | –
32 | Cc1ccc(C2(c3ccccc3)NC(=O)N(CC(=O)NCc3ccccc3)C2=O)cc1C (stereo not drawn) | inconclusive: 29.1 µM [cytotoxic, single point] | –
33 | O=C(Nc1ccc(N2CCOCC2)c(Cl)c1)c1ccc(S(=O)(=O)N2CCOCC2)cc1 | inconclusive: 29.1 µM [cytotoxic, single point] | –
34 | O=C(O)Cc1cn(Cc2cccc(Cl)c2)c2ccccc12 | – | inconclusive: 1.86%
35 | CC(=O)c1cccc(-c2ccnc3c2CC(C(=O)NCc2ccccc2)O3)c1 (stereo not drawn) | inconclusive: 0.58 µM [cytotoxic, full curve, poor fit] | –
36 | CCc1ccc(OCc2cc(=O)n3cc(C)sc3n2)cc1 | inactive | –
37 | OCCn1cnc2c(SCc3ccccc3)ncnc21 | inconclusive: 6.51 µM [cytotoxic, partial curve] | –
38 | CCc1ccc(NCc2cc3ccc(OC)cc3n(CC(=O)Nc3ccc(C)c(Cl)c3)c2=O)cc1 | inconclusive: 29.1 µM [cytotoxic, single point] | –
39 | CCC(C)Sc1nc(O)c(Cc2ccccc2)c(=O)[nH]1 (stereo not drawn) | inactive | –
40 | O=C1N/C(=C/c2cccn2-c2ccccc2)C(=O)N1Cc1ccccc1F | inconclusive: 29.1 µM [rising, single point] | –
41 | Cc1ccc2cccc(S(=O)(=O)N3CCCc4ccccc43)c2n1 | inconclusive: 20.6 µM [cytotoxic, single point] | –
42 | Cc1ccc(-c2nnn(CC(=O)N(CC(=O)NCc3ccccc3)c3cccc(C)c3C)n2)o1 | inactive | –
43 | Cc1ccc(CSc2nc(-c3ccccc3C)nc3c2Cc2c(CO)cnc(C)c2O3)cc1 | inconclusive: 14.6 µM [cytotoxic, single point] | –
44 | O=[N+]([O-])c1cccc(C2=NCCC(c3ccccc3)O2)c1 (stereo not drawn) | – | inconclusive: 2.62%
45 | CCn1c2ccccc2c2cc(NC(=O)c3cccc(OC)c3)ccc21 | inconclusive: 22.4 µM [cytotoxic, single point] | –
46 | O=S(=O)(Nc1cccc(Cl)c1)c1ccc2oc(=S)[nH]c2c1 | inactive | –

Entries shown so far containing a halogen (eleven):
Row | Structure (SMILES) | Potency | activity change, negative = cytotoxic
6 | Clc1cccc(Cl)c1C[n+]1cccc2ccccc21 | inconclusive: 16.4 µM [cytotoxic, partial curve] | –
8 | Cc1ccc(/C=N/NC(=O)Cc2ccc(Cl)cc2)s1 | inactive | –
20 | COC(=O)C1CCN(c2csc3ccc(Cl)cc3c2=O)CC1 | inactive | –
22 | Cc1nc2ccc(S(=O)(=O)NCC(=O)Nc3cccc(F)c3)cc2s1 | inactive | –
25 | Cc1ccc(C(=O)NCc2ccco2)cc1Br | inactive | –
27 | CN(C)S(=O)(=O)N1CCc2ccc(NC(=O)c3ccc(C(F)(F)F)cc3)cc2C1 | inconclusive: 5.17 µM [cytotoxic, partial curve, poor fit] | –
33 | O=C(Nc1ccc(N2CCOCC2)c(Cl)c1)c1ccc(S(=O)(=O)N2CCOCC2)cc1 | inconclusive: 29.1 µM [cytotoxic, single point] | –
34 | O=C(O)Cc1cn(Cc2cccc(Cl)c2)c2ccccc12 | – | inconclusive: 1.86%
38 | CCc1ccc(NCc2cc3ccc(OC)cc3n(CC(=O)Nc3ccc(C)c(Cl)c3)c2=O)cc1 | inconclusive: 29.1 µM [cytotoxic, single point] | –
40 | O=C1N/C(=C/c2cccn2-c2ccccc2)C(=O)N1Cc1ccccc1F | inconclusive: 29.1 µM [rising, single point] | –
46 | O=S(=O)(Nc1cccc(Cl)c1)c1ccc2oc(=S)[nH]c2c1 | inactive | –

Further records

Row | Structure (SMILES) | Potency | activity change, negative = cytotoxic
47 | Cc1ccc(NC(=O)C2=COCCO2)cc1S(=O)(=O)N1CCOCC1 | inactive | –
48 | CCOC(=O)[C@]12CCCC=C1N(Cc1cccc3ccccc13)C(=O)[C@H](CC(=O)NCc1cccs1)C2 | inconclusive: 18.4 µM [cytotoxic, single point] | –
49 | CC1CC(C)CN(S(=O)(=O)c2ccc(C(=O)Nc3nnc(C4CC4)o3)cc2)C1 (stereo not drawn) | inconclusive: 29.1 µM [cytotoxic, single point] | –
50 | CN(CC(=O)Nc1ccc(F)cc1)C(=O)CN1C(=O)c2cccc([N+](=O)[O-])c2C1=O | inactive | –
51 | CN(Cc1ccc(Cl)cc1Cl)C(=O)c1cccc(S(=O)(=O)N2CCN(c3ccccc3)CC2)c1 | inconclusive: 13 µM [cytotoxic, partial curve] | –
52 | Cc1ccc(CN2CC(=O)N3[C@H]4c5cc(Cl)ccc5OC[C@@H]4[C@H](c4ccccc4)[C@]3(C)C2=O)cc1 | inconclusive: 29.1 µM [cytotoxic, single point] | –
53 | Nc1nc(Cl)nc2c1ncn2[C@@H]1O[C@H](CO)[C@@H](O)[C@H]1O | inconclusive: 29.1 µM [cytotoxic, single point] | –
54 | CSc1nc2cc(C)nn2c(-c2ccccc2Cl)c1C#N | inconclusive: 25.9 µM [rising, partial curve, poor fit] | –
55 | CCN(CC)S(=O)(=O)c1ccc(-c2nnc(SCC(=O)Nc3nnc(C)s3)n2CC)cc1 | inconclusive: 20.6 µM [rising, single point] | –
56 | O=C(CCl)NCCCCCCCCCNC(=O)CCl | inconclusive: 2.91 µM [cytotoxic, partial curve, poor fit] | –
57 | S=c1[nH]cnc2scc(-c3ccc(Cl)cc3)c12 | inconclusive: 29.1 µM [cytotoxic, single point] | –
58 | CCOc1ccc(N(C)S(=O)(=O)c2ccc(C)c(C(=O)NCc3cccs3)c2)cc1 | inconclusive: 2.06 µM [cytotoxic, partial curve, poor fit] | –
59 | Cc1cc(NC(=O)Nc2cc(F)ccc2F)no1 | – | inconclusive: -2.95%
60 | O=C(Nc1ccccc1-c1nc2ccccc2s1)c1ccc(Br)o1 | inconclusive: 32.6 µM [cytotoxic, single point] | –
61 | COc1ccc(CC(C#N)(CO)c2nc3ccccc3[nH]2)cc1 (stereo not drawn) | inconclusive: 18.4 µM [cytotoxic, single point] | –
62 | COc1ccc(OC)c(C2CC(c3ccc(NS(C)(=O)=O)cc3)=NN2C(=O)c2ccccc2)c1 (stereo not drawn) | inactive | –
63 | COc1cccc(C(=O)N/N=C(/c2ccccc2)c2ccccn2)c1 | inconclusive: 2.24 µM [cytotoxic, full curve, poor fit] | –
64 | COc1ccc(NC(=O)CN(C)CC(=O)Nc2ccc(C)c(S(=O)(=O)N3CCCCC3)c2)cc1 | inconclusive: 29.1 µM [cytotoxic, single point] | –
65 | O=S(=O)(c1ccccc1)N1N=C(c2cccs2)CC1c1ccc(F)cc1 (stereo not drawn) | inconclusive: 16.4 µM [cytotoxic, single point] | –
66 | C=CC(=O)Nc1cccc(Oc2ccnc(Nc3ccc(N4CCN(C)CC4)cc3)n2)c1 | inconclusive: 16.4 µM [cytotoxic, partial curve, poor fit] | –
67 | CCCN(CCC)c1ccc(CC(=O)NC(C)Cc2ccccc2)cc1 (stereo not drawn) | inconclusive: 8.2 µM [rising, partial curve] | –
68 | O=C(c1ccc(Br)c(S(=O)(=O)N2CCOCC2)c1)N1CCN(C/C=C/c2ccccc2)CC1 | inconclusive: 14.6 µM [cytotoxic, partial curve] | –
